Test results published in paper PMC11678445.
No constants are given. Whether binding was seen depends on the method and setting. Binding seen in cells or lysates may run through a third protein.

Sequences of proteins named here, by UniProt entry; tags and fusion partners are left off. A change or cut given only in a name is not applied to a line headed by its entry.
UniProt Q5JTV8: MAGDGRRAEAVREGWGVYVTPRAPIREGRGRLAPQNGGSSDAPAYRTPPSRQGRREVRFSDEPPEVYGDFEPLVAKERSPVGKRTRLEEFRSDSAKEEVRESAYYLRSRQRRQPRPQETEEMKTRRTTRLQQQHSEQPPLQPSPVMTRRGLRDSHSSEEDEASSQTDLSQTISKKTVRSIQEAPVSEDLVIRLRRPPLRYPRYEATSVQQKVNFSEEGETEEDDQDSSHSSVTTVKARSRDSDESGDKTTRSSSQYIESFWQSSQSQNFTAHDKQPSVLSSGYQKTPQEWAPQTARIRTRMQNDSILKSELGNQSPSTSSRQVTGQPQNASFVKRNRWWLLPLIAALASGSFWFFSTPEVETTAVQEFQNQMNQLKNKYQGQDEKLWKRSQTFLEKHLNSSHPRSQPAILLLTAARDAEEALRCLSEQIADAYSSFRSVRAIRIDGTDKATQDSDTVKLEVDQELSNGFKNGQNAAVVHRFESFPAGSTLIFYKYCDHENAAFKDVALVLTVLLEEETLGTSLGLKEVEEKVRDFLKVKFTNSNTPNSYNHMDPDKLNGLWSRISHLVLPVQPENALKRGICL
UniProt P12956: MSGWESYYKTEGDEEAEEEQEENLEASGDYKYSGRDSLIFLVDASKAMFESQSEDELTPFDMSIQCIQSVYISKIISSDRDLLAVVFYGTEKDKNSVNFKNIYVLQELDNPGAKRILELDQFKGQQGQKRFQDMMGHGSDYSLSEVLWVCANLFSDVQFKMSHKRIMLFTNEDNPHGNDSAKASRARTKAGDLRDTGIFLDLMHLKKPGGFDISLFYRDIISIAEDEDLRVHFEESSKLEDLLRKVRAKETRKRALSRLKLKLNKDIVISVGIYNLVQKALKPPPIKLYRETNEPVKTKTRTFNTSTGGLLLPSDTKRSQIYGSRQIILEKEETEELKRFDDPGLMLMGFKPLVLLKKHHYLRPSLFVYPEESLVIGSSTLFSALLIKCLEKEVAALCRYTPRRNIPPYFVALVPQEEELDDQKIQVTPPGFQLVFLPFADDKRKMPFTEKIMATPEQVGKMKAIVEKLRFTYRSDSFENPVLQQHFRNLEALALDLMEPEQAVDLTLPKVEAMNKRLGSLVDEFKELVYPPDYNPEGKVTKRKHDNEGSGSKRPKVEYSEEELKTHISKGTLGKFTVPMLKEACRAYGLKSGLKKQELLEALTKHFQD

Target: LAP1 E482A (mutant LAP1 of patient-derived fibroblasts) (human (endogenous in skin fibroblasts)) (UniProt Q5JTV8)
Assay: co-IP; endogenous LAP1 immunoprecipitated from fibroblast whole cell lysates (control or LAP1 E482A; 2000 µg protein, 4% CHAPS lysis buffer, 50 mM Tris-HCl pH 8, 120 mM NaCl) with anti-LAP1 antibody cross-linked to Dynabeads Protein G, 4 °C overnight; rabbit IgG control; immunoblotting for LAP1, Ku70, emerin and H2AX

Ku70 (from UniProt P12956 1-609)
binding: no binding
